For seven molecules, binding results are on record in article PMC10978938.

By UniProt entry, the sequences of proteins in these tests, tags left out.
UniProt Q16539: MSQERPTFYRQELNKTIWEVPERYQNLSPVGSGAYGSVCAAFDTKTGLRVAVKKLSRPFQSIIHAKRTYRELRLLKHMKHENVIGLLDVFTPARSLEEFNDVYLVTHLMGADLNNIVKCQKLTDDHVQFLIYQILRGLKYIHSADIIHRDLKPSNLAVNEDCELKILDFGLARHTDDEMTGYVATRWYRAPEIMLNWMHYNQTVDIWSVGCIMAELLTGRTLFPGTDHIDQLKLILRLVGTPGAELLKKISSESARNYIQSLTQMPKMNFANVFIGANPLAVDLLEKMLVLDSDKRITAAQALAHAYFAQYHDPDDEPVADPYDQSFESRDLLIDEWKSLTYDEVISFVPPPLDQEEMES
UniProt P47811: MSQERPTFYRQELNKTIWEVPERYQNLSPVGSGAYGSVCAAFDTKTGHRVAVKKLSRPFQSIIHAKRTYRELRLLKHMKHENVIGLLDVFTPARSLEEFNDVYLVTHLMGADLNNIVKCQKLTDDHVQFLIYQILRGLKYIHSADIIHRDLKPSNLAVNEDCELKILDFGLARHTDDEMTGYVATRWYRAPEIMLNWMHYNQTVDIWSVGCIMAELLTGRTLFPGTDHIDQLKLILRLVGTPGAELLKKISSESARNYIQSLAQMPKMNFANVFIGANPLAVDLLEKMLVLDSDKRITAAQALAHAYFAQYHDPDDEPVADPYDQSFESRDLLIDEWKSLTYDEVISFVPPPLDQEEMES
UniProt Q8C3P7: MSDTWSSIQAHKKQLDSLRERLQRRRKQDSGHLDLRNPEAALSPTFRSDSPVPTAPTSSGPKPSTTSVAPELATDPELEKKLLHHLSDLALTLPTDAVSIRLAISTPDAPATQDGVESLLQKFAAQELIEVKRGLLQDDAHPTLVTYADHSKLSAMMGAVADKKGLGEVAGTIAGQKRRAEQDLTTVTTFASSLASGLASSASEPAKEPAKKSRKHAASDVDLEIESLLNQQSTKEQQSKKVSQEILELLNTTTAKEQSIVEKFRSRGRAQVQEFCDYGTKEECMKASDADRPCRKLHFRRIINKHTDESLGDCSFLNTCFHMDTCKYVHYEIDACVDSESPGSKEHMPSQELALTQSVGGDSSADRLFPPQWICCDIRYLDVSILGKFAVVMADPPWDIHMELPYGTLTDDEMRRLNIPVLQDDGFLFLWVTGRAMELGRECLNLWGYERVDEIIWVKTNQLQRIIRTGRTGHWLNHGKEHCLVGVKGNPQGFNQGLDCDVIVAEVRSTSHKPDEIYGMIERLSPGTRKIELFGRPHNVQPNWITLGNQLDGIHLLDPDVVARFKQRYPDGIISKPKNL

These are yes or no findings as the source states them, for the method shown. For some of these results: Binding seen in cells or lysates may run through a third protein. Some entries that bind do so weakly or less than the wild type. For some of these results: Sequences can lack the tags named with a protein.

In test [1] the target is T1, HA-tagged Mettl14, wild type (UniProt Q3UIK4).
T1 sequence: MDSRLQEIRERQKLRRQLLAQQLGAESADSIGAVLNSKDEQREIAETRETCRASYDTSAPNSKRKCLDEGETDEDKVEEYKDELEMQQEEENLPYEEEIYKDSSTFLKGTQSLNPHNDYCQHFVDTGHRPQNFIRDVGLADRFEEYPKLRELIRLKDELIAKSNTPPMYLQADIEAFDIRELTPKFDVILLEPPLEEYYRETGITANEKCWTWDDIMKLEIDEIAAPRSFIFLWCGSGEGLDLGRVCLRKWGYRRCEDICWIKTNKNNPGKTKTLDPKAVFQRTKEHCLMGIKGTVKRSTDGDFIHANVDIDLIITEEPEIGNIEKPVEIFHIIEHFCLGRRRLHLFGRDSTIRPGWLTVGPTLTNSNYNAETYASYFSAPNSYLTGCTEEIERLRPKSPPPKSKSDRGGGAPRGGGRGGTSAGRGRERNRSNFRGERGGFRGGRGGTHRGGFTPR
Put plainly: co-IP.

For test [2], the target named is T2, METTL14 in HEK293T cells (human (endogenous in HEK293T)) (UniProt Q9HCE5).
T2 sequence: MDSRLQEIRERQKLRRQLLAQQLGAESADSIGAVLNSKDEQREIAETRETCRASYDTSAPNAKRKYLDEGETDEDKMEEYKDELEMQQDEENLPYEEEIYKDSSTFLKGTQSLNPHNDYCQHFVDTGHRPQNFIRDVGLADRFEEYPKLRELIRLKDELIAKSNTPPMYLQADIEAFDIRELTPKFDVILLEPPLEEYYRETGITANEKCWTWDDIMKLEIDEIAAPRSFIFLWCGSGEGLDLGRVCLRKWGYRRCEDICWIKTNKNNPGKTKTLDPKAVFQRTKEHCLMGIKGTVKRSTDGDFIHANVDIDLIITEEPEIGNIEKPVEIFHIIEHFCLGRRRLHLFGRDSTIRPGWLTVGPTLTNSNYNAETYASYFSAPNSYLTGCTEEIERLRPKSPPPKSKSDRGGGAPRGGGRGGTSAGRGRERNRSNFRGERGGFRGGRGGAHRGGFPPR
The test is described as follows: co-IP; HEK293T cells transfected with plasmids encoding FLAG-EsxB for 24 h and stimulated with TNF-α for indicated times.

Test [3] addresses T3, methyltransferase-like 14 (METTL14), endogenous in mouse peritoneal macrophages (mouse (endogenous in peritoneal macrophages)) (UniProt Q3UIK4).
T3 sequence: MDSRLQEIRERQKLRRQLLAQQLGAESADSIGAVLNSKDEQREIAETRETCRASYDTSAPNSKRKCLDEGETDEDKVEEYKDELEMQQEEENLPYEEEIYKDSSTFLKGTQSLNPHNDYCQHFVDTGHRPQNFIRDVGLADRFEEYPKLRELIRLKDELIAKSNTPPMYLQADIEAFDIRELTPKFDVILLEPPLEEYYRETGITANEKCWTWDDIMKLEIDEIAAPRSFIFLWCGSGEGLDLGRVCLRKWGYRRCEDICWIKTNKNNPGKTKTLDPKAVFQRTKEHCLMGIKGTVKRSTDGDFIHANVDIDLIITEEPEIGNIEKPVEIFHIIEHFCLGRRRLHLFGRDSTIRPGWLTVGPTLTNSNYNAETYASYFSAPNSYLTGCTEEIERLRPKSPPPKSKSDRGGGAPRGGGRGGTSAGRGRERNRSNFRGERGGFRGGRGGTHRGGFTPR
The test is described as follows: co-IP.

The target of test [4] is GST-p38, purified recombinant (human) (UniProt Q16539). Put plainly: pull-down; in vitro GST precipitation assay, purified recombinant GST-p38 with GFP-METTL14; both purified.
The target of test [5] is p38 MAP kinase (p38α), endogenous in mouse peritoneal macrophages (mouse (endogenous in peritoneal macrophages)) (UniProt P47811). The test is described as follows: co-IP.

“methyltransferase-like 3 (METTL3), endogenous in mouse macrophages (from UniProt Q8C3P7 1-580) (enzyme)”: in test [1], the binding result was “binds”. For “p38 MAP kinase in HEK293T cells (from UniProt Q16539 1-360) (enzyme)”, the binding entry in test [2] is on record as “binds”.

In the case of “p38 MAP kinase (p38α), endogenous in mouse peritoneal macrophages (from UniProt P47811 1-360) (enzyme)”, the binding result in test [3] is “binds”.

B1: GFP-METTL14, recombinant (protein, UniProt Q3UIK4 1-456)
chain: MDSRLQEIRERQKLRRQLLAQQLGAESADSIGAVLNSKDEQREIAETRETCRASYDTSAPNSKRKCLDEGETDEDKVEEYKDELEMQQEEENLPYEEEIYKDSSTFLKGTQSLNPHNDYCQHFVDTGHRPQNFIRDVGLADRFEEYPKLRELIRLKDELIAKSNTPPMYLQADIEAFDIRELTPKFDVILLEPPLEEYYRETGITANEKCWTWDDIMKLEIDEIAAPRSFIFLWCGSGEGLDLGRVCLRKWGYRRCEDICWIKTNKNNPGKTKTLDPKAVFQRTKEHCLMGIKGTVKRSTDGDFIHANVDIDLIITEEPEIGNIEKPVEIFHIIEHFCLGRRRLHLFGRDSTIRPGWLTVGPTLTNSNYNAETYASYFSAPNSYLTGCTEEIERLRPKSPPPKSKSDRGGGAPRGGGRGGTSAGRGRERNRSNFRGERGGFRGGRGGTHRGGFTPR
As to B1, the binding entry in test [4] was “binds”.

B2: TAB1, endogenous in mouse peritoneal macrophages (protein, UniProt Q8CF89 1-502)
chain: MAAQRRSLLQSEQQPSWTDDLPLCHLSGVGSASNRSYSADGKGTESHPPEDNWLKFRSENNCFLYGVFNGYDGNRVTNFVAQRLSAELLLGQLNTEHTEADVRRVLLQAFDVVERSFLESIDDALAEKASLQSQLPEGVPQHQLPPQYQKILERLKALEREISGGAMAVVAVLLNSKLYVANVGTNRALLCKSTVDGLQVTQLNMDHTTENEDELFRLSQLGLDAGKIKQMGVICGQESTRRIGDYKVKYGYTDIDLLSAAKSKPIIAEPEIHGAQPLDGVTGFLVLMSEGLYKALEAAHGPGQANQEIAAMIDTEFAKQTSLDAVAQAVVDRVKRIHSDTFASGGERAKFCPRHEDMTLLVRNFGYPLGEMSQPTPTPAPGGRVYPVSVPYSSAQSTSKTSVTLSLVMPSQGQMVNGSHSASTLDEATPTLTNQSPTLTLQSTNTHTQSSSSSSDGGLFRSRPAHSLPPGEDGRVEPYVDFAEFYRLWSVDHGEQSVMTAP
In the case of B2, the binding entry in test [5] is given as “binds”.

B3: TCF (ELK4), endogenous in mouse peritoneal macrophages (protein, UniProt P41158 1-430)
chain: MDSAITLWQFLLQLLQEPQNEHMICWTSNNGEFKLLQAEEVARLWGIRKNKPNMNYDKLSRALRYYYVKNIIKKVNGQKFVYKFVSYPEILKMDPLTVGRIEGDCEALNSIETSSSKDVEYGGKERPPQPGAKTSSRNDYIHSGLYSSFTLNSLNTSNKKLFKSIKIENPAEKLAEKKAQEPTPSVIKFVTTPAKKPPIEPVAAAFATSPSLSPSSEETIQALETLVSPTLPSLETPASISILATTFNPTPPVPSTPLPLKEPPRTPSPPLSSNPDIDTDIESVASQPMELPENLSLEPKNEDSALPEKDKTNNSSRSKKPKGLELTPALVVTGSDPSPLGILSPSLPTASLTPALFSQTPILLTPSPLLSSIHFWSTLSPFAPLSPARLQGANTLFQFPSVLNSHGPFTLSGLDGPSTPGPFSPDLQKT
On to B3, for which the binding entry in test [5] is “binds”.

B4: ATF-2, endogenous in mouse peritoneal macrophages (protein, UniProt P16951 1-487)
chain: MSDDKPFLCTAPGCGQRFTNEDHLAVHKHKHEMTLKFGPARNDSVIVADQTPTPTRFLKNCEEVGLFNELASPFENEFKKASEDDIKKMPLDLSPLATPIIRSKIEEPSVVETTHQDSPLPHPESTTSDEKEVPLAQTAQPTSAIVRPASLQVPNVLLTSSDSSVIIQQAVPSPTSSTVITQAPSSNRPIVPVPGPFPLLLHLPNGQTMPVAIPASITSSNVHVPAAVPLVRPVTMVPSVPGIPGPSSPQPVQSEAKMRLKAALTQQHPPVTNGDTVKGHGSGLVRTQSEESRPQSLQQPATSTTETPASPAHTTPQTQNTSGRRRRAANEDPDEKRRKFLERNRAAASRCRQKRKVWVQSLEKKAEDLSSLNGQLQSEVTLLRNEVAQLKQLLLAHKDCPVTAMQKKSGYHTADKDDSSEDLSVPSSPHTEAIQHSSVSTSNGVSSTSKAEAVATSVLTQMADQSTEPALSQIVMAPPSQAQPSGS
On to B4, for which the binding result in test [5] is recorded as “binds”.
